Melanoma cell counts after drug treatment

From a melanoma drug combination screen (doi:10.1371/journal.pone.0140310); values rounded.

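The test systems are human melanoma cell lines, treated with a pair of drugs for 72 h and then stained and imaged. Each value is the count of nuclei relative to DMSO-treated wells, in %, so that 100 equals the control. Concentrations were fixed for each drug; these are the higher of two levels. These are primary screening values without error estimates.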 This is part of the screen, not chosen by result.

First drug in all entries: veliparib, 7 µM, C[C@]1(c2nc3c(C(N)=O)cccc3[nH]2)CCCN1

For Nc1ccn([C@@H]2O[C@H](CO)[C@@H](O)C2(F)F)c(=O)n1 at 0.002 µM the values were COLO 829: 53.5; WM451Lu: 57.5; C32: 86.3; COLO 800: 28.1; WM3619: 49.0; COLO 792: 86.1.
For Cc1cc(N2CCOCC2)cc2[nH]c(-c3c(NC[C@@H](O)c4cccc(Cl)c4)cc[nH]c3=O)nc12 at 1 µM the values were COLO 829: 101; WM451Lu: 95.2; C32: 73.5; COLO 800: 37.3; WM3619: 79.4; COLO 792: 56.4.
For Clc1ccc(Nc2nnc(Cc3ccncc3)c3ccccc23)cc1 at 10 µM the values were COLO 829: 74.5; WM451Lu: 92.3; C32: 106; COLO 800: 55.3; WM3619: 44.9; COLO 792: 56.3.
For CN(C)S(=O)(=O)c1ccc2c(c1)/C(=C/c1cc3c([nH]1)CCCC3)C(=O)N2 at 2 µM the values were COLO 829: 81.4; WM451Lu: 75.1; C32: 82.2; COLO 800: 43.3; WM3619: 60.6; COLO 792: 60.0.
For N.N.[Cl][Pt][Cl] at 8 µM the values were COLO 829: 57.2; WM451Lu: 72.7; C32: 73.8; COLO 800: 66.8; WM3619: 49.0; COLO 792: 87.8.
For CC1(C)NC(=O)N(c2ccc([N+](=O)[O-])c(C(F)(F)F)c2)C1=O at 5 µM the values were COLO 829: 84.2; WM451Lu: 99.0; C32: 98.0; COLO 800: 53.1; WM3619: 103; COLO 792: 62.3.
For CCCS(=O)(=O)Nc1ccc(F)c(C(=O)c2c[nH]c3ncc(Cl)cc23)c1F at 0.4 µM the values were COLO 829: 66.5; WM451Lu: 61.9; C32: 89.5; COLO 800: 59.2; WM3619: 61.0; COLO 792: 78.1.
For Oc1nc(-c2ccc(C(F)(F)F)cc2)nc2c1CSCC2 at 10 µM the values were COLO 829: 96.5; WM451Lu: 105; C32: 87.7; COLO 800: 64.1; WM3619: 58.1; COLO 792: 75.5.
For NC(=O)c1ccc(N(C(N)=O)c2c(F)cccc2F)nc1-c1ccc(F)cc1F at 2 µM the values were COLO 829: 65.0; WM451Lu: 77.1; C32: 95.8; COLO 800: 63.7; WM3619: 93.0; COLO 792: 89.2.
For COc1cc2ncnc(Nc3ccc(Oc4ccccc4)cc3)c2cc1OC at 10 µM the values were COLO 829: 99.7; WM451Lu: 91.7; C32: 130; COLO 800: 47.6; WM3619: 102; COLO 792: 69.5.
For O=C(O)[C@@H]1[O][Sb](=[O])([O][Sb]2(=[O])[O][C@H]([C@H](O)CO)[C@H](O)[C@H](C(=O)O)[O]2)[O][C@H]([C@H](O)CO)[C@@H]1O (stereo partly specified) at 10 µM the values were COLO 829: 77.7; WM451Lu: 78.9; C32: 92.3; COLO 800: 63.2; WM3619: 101; COLO 792: 142.
For O=C(/C=C/c1cccnc1)NCCCCC1CCN(C(=O)c2ccccc2)CC1 at 0.05 µM the values were COLO 829: 72.4; WM451Lu: 127; C32: 101; COLO 800: 41.9; WM3619: 75.5; COLO 792: 44.0.
For Nc1nc(F)nc2c1ncn2[C@@H]1O[C@H](CO)[C@@H](O)[C@@H]1O at 1 µM the values were COLO 829: 91.2; WM451Lu: 67.8; C32: 98.8; COLO 800: 95.2; WM3619: 90.2; COLO 792: 61.4.
For O=C(O)c1ccc(-c2c[nH]c3ncc(-c4ccccc4)cc23)cc1C1CCCC1 at 0.8 µM the values were COLO 829: 76.7; WM451Lu: 110; C32: 94.3; COLO 800: 65.8; WM3619: 62.0; COLO 792: 89.2.
For CC(C)CCN1c2nc(Nc3cc(F)c(O)c(F)c3)ncc2N(C)C(=O)C1C (stereo unspecified) at 1 µM the values were COLO 829: 103; WM451Lu: 67.6; C32: 94.8; COLO 800: 67.6; WM3619: 79.7; COLO 792: 79.6.
For O=C(Oc1ccc([N+](=O)[O-])cc1)N1CCC(C(O)(c2ccc3c(c2)OCO3)c2ccc3c(c2)OCO3)CC1 at 5 µM the values were COLO 829: 103; WM451Lu: 90.6; C32: 101; COLO 800: 103; WM3619: 69.6; COLO 792: 98.0.
For Cn1cc(C2=C(c3cn(C4CCN(Cc5ccccn5)CC4)c4ccccc34)C(=O)NC2=O)c2ccccc21 at 4 µM the values were COLO 829: 78.9; WM451Lu: 98.0; C32: 84.0; COLO 800: 72.1; WM3619: 59.5; COLO 792: 88.7.
For CO[C@H]1C[C@@H]2CC[C@@H](C)[C@@](O)(O2)C(=O)C(=O)N2CCCC[C@H]2C(=O)O[C@H]([C@H](C)C[C@@H]2CC[C@@H](OCCO)[C@H](OC)C2)CC(=O)[C@H](C)/C=C(\C)[C@@H](O)[C@@H](OC)C(=O)[C@H](C)C[C@H](C)/C=C/C=C/C=C/1C at 0.1 µM the values were COLO 829: 85.7; WM451Lu: 72.3; C32: 77.9; COLO 800: 47.8; WM3619: 44.5; COLO 792: 41.1.
For COc1ccc2c(c1)CCC1C2CCC2(C)C(NCCCCCCN3C(=O)C=CC3=O)CCC12 (stereo unspecified) at 2 µM the values were COLO 829: 80.7; WM451Lu: 91.0; C32: 58.5; COLO 800: 47.9; WM3619: 44.2; COLO 792: 82.7.
For O=C(O)c1ccc2c(c1)nc(Nc1cccc(Cl)c1)c1ccncc12 at 2 µM the values were COLO 829: 39.0; WM451Lu: 67.7; C32: 86.5; COLO 800: 92.1; WM3619: 68.7; COLO 792: 57.0.
For Cc1cc([N+](=O)[O-])ccc1NS(=O)(=O)c1cc(Cl)ccc1Cl at 5 µM the values were COLO 829: 73.3; WM451Lu: 91.3; C32: 71.0; COLO 800: 57.8; WM3619: 69.6; COLO 792: 78.3.
For N#Cc1c(O)c2c(-c3ccc(-c4ccccc4O)cc3)csc2[nH]c1=O at 10 µM the values were COLO 829: 102; WM451Lu: 99.8; C32: 89.2; COLO 800: 81.5; WM3619: 81.9; COLO 792: 140.
For C[C@@H]1CCN(C(=O)CC#N)C[C@@H]1N(C)c1ncnc2[nH]ccc12 at 5 µM the values were COLO 829: 89.1; WM451Lu: 90.1; C32: 106; COLO 800: 54.4; WM3619: 71.9; COLO 792: 93.5.
For O=C(Nc1cc(C(F)(F)F)cc(C(F)(F)F)c1)c1cc(Cl)ccc1O at 0.08 µM the values were COLO 829: 66.9; WM451Lu: 122; C32: 100; COLO 800: 67.8; WM3619: 98.2; COLO 792: 79.2.
For CCCCCCCCc1ccc(CCC(N)(CO)CO)cc1 at 10 µM the values were COLO 829: 46.3; WM451Lu: 5.5; C32: 11.4; COLO 800: 19.6; WM3619: 1.2; COLO 792: 6.8.
For COc1cc(Nc2ncc(F)c(Nc3ccc4c(n3)NC(=O)C(C)(C)O4)n2)cc(OC)c1OC at 2 µM the values were COLO 829: 87.9; WM451Lu: 74.4; C32: 83.7; COLO 800: 30.2; WM3619: 72.3; COLO 792: 34.8.
For CC(C)C[C@H](NC(=O)[C@H](Cc1ccccc1)NC(=O)c1cnccn1)B(O)O at 0.005 µM the values were COLO 829: 8.3; WM451Lu: 22.0; C32: 43.2; COLO 800: 53.5; WM3619: 1.4; COLO 792: 37.7.
For O=C(Nc1cccc(Cl)c1)Nc1ncc(CCNc2ncnc3ccsc23)s1 at 0.004 µM the values were COLO 829: 59.8; WM451Lu: 68.9; C32: 61.5; COLO 800: 37.7; WM3619: 65.6; COLO 792: 48.8.

The first 3 entries again:

Partner,COLO 829,WM451Lu,C32,COLO 800,WM3619,COLO 792
Nc1ccn([C@@H]2O[C@H](CO)[C@@H](O)C2(F)F)c(=O)n1 at 0.002 µM,53.5,57.5,86.3,28.1,49.0,86.1
Cc1cc(N2CCOCC2)cc2[nH]c(-c3c(NC[C@@H](O)c4cccc(Cl)c4)cc[nH]c3=O)nc12 at 1 µM,101,95.2,73.5,37.3,79.4,56.4
Clc1ccc(Nc2nnc(Cc3ccncc3)c3ccccc23)cc1 at 10 µM,74.5,92.3,106,55.3,44.9,56.3